Test results from patent US20210196823A1, “Methods of Treating Metabolic Disease” (Pfizer Inc., priority 2018, published 2021).
No constants are given. Whether binding was seen depends on the method and setting. Some binding calls cover weakened binding; strength is not graded here.

Amino acid sequences for entries named in this document (tags omitted). Residues count along the entry.
UniProt P22004, residues 382-513: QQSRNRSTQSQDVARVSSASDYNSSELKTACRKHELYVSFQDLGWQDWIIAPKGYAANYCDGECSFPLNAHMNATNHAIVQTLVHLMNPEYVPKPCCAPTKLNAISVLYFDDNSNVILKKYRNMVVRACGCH

Key:
[1] = target: T1, BMP2 (UniProt P12643); assay: SPR/Biacore (FIG. 2 legend)
T1 sequence (looked up): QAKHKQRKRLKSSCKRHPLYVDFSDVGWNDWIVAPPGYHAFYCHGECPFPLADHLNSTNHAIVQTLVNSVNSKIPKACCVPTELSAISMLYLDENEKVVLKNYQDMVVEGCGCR

[2] = target: T2, BMP4 (UniProt P12644); assay: SPR/Biacore (FIG. 2 legend)
T2 sequence (looked up): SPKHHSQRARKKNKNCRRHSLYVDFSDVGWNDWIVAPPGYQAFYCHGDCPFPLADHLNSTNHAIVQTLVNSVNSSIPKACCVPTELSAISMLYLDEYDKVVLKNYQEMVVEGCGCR

[3] = target: BMP6 (UniProt P22004); assay: SPR/Biacore (FIG. 2 legend)
[4] = target: T1, BMP2; assay: SPR (Biacore): BMP at 50 nM over ERFE A4-biotin amine coupled to a CM4 chip, MES-Tris pH 6.0, 25 °C
[5] = target: T2, BMP4; assay: as above
[6] = target: BMP6 (UniProt P22004); assay: as above

Measured: binding

B1: ERFE A4-biotin (ligand)
chain: AAGLGSPEPGAPSRSAAAAEPPPGNELPRGPGESRAGPAARPPEPTAERAHSVDPRDAWMLFVRQSDKGVNGKKRSRGKAKKLKFGLPGPPGPPGPQGPPGPIIPPEALLKEFQLLLKGAVRQRERAEPEPCTCGPAGPVAASLAPVSATAGEDDDDVVGDVLALLAAPLAPGPRAPRVEAAFLCRLRRDALVERRALHELGVYYLPDAEGAFRRGPGLNLTSGQYRAPVAGFYALAATLHVALGEPPRRGPPRPRDHLRLLICIQSRCQRNASLEAIMGLESSSELFTISVNGVLYLQMGQWTSVFLDNASGCSLTVRSGSHFSAVLLGV
modifications: biotin (site not stated)
binds: [1] | [2] | [3] | [4] | [5] | [6]
